The values below come from PMC5789973.

Sequences of proteins named here, by UniProt entry; tags and fusion partners are left off.
UniProt P46938: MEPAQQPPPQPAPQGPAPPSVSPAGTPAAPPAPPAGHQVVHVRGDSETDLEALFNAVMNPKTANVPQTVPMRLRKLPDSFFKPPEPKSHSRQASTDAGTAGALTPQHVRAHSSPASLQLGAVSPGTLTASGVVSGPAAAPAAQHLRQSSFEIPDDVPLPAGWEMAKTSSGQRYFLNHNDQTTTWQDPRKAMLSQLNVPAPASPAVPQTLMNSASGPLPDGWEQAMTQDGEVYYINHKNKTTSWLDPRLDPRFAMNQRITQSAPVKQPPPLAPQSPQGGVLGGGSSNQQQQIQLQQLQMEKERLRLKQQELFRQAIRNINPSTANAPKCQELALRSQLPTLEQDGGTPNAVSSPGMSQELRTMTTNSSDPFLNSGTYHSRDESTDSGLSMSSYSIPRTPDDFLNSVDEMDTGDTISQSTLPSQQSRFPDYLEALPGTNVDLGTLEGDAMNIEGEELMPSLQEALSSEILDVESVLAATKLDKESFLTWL
UniProt P48301: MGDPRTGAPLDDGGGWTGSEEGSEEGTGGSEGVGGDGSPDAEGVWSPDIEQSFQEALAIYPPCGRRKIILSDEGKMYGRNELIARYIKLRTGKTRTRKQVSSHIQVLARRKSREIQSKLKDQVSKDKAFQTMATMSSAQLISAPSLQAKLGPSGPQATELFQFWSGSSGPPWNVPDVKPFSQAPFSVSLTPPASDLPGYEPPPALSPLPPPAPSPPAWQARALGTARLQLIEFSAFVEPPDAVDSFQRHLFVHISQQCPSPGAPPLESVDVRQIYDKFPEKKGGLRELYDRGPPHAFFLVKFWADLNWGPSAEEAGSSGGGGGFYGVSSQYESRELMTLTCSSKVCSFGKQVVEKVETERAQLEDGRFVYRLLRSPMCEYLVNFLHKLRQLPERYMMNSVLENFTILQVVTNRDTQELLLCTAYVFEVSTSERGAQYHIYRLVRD
UniProt Q02248: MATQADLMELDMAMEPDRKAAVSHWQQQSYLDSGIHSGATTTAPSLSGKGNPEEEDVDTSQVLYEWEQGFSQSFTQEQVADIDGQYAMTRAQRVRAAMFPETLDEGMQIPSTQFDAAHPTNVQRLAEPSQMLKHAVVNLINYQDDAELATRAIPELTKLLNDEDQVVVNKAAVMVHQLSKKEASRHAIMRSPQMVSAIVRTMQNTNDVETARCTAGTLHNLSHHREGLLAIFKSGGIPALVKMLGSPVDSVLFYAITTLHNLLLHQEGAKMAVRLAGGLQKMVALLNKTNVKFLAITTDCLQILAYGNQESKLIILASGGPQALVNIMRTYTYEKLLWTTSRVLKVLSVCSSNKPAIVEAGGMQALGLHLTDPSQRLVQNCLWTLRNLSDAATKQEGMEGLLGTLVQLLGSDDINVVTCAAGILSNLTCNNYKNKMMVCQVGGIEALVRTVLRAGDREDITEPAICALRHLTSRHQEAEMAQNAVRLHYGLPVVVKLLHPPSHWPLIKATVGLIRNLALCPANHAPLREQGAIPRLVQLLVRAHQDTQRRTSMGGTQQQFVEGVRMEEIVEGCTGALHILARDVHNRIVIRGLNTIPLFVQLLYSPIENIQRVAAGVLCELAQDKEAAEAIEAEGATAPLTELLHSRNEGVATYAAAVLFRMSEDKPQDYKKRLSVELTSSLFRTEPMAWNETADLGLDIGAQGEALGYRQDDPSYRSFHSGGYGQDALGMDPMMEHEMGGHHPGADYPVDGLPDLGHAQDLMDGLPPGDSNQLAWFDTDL

In one assay the target is FLAG–YAP-S127A (human) (UniProt P46937). As to the kind of experiment: co-IP; FLAG immunoprecipitates from ESC transiently transfected with FLAG–YAP or FLAG–YAP-S127A, with or without RASSF1A; western blot.
The next assay deals with FLAG–YAP (human) (UniProt P46937). Described as above.
For assay [1], the target named is YAP (mouse (endogenous in E14Tg2a ESC and in iPSC from MEFs)) (UniProt P46938). As to the kind of experiment: SEC; whole cell extracts of ESC in the presence of LIF on Superdex 200 HR 10/30 (20 mM HEPES pH 7.5, 150 mM NaCl, 0.5 mM EDTA, 0.25 mM DTT); fractions western blotted.
Assay [2] shares this target. As to the kind of experiment: SEC; whole cell extracts of differentiating ESC (-LIF day 4) on Superdex 200 HR 10/30 (20 mM HEPES pH 7.5, 150 mM NaCl, 0.5 mM EDTA, 0.25 mM DTT); fractions western blotted. (In general: In gel filtration, larger molecules generally elute earlier.)
For assay [3] the target is unchanged. Nature of the assay: co-IP; anti-YAP or anti-TEF-4 (TEAD2) immunoprecipitates from ESC lysates (1% NP40, 150 mM NaCl, 3 h at 4 °C), western blot; cells with siRassf1A, shRassf1A, YAP depletion or RASSF1A expression.
For assay [4], the target named is TEAD2 (mouse (endogenous in E14Tg2a ESC and in iPSC from MEFs)) (UniProt P48301). The assay is described as above.
Assay [5] has as its target YAP (mouse (endogenous in E14Tg2a ESC and in iPSC from MEFs)) (UniProt P46938). Described as above. The source holds these as a separate data set.
The target in assay [6] is pS127-YAP (mouse (endogenous in E14Tg2a ESC)) (UniProt P46938). Nature of the assay: proximity ligation; Duolink PLA with anti-pS127 YAP and anti-p73 on fixed ESC expressing RASSF1A.
Assay [7] has the same target. Nature of the assay: proximity ligation; Duolink PLA with anti-pS127 YAP and anti-p73 on fixed ESC not expressing RASSF1A.

These are yes or no findings as the source states them, for the method shown. For part of these data: Binding seen in cells or lysates may run through a third protein. Some results given as binding are weak or reduced against the parent protein; the word gives no strength.

With β-catenin (from UniProt Q02248 1-781), the binding entry was “binds” with FLAG–YAP-S127A (human); “binds” with FLAG–YAP (human); “binds” in assay [1]; “no binding (condition: differentiation (-LIF day 4))” in assay [2]; “binds” in [3].
As to TEAD2 (from UniProt P48301 1-445), the binding entry in the assay with FLAG–YAP-S127A (human) is given as “binds”; with FLAG–YAP (human), “binds”; in [1] it was “binds”; in assay [2] it was “no binding (condition: differentiation (-LIF day 4))”; in [3], “binds”.

B1: TCF3 (protein, UniProt Q9Z1J1 1-584)
chain: MPQLGGGRGGAGGGGGGSGAGATSGGDDLGANDELIPFQDEGGEEQEPSSDTASAQRDLDEVKSSLVNESENQSSSSDSEAERRPQPARDAFQKPRDYFAEVRRPQDGAFFKGGAYPGYPFLMIPDLSSPYLSNGPLSPGGARTYLQMKWPLLDVPSSATVKDTRSPSPAHLSNKVPVVQHPHHMHPLTPLITYSNDHFSPASPPTHLSPEIDPKTGIPRPPHPSELSPYYPLSPGAVGQIPHPLGWLVPQQGQPMYSLPPGGFRHPYPALAMNASMSSLVSSRFPHMVAPAHPGLPTSGIPHPAIVSPIVKQEPAAPSLSPAVSAKSPVTVKKEEEKKPHVKKPLNAFMLYMKEMRAKVVAECTLKESAAINQILGRKWHNLSREEQAKYYELARKERQLHAQLYPTWSARDNYGKKKKRKREKQLSQTQSQQQIQEAEGALASKSKKPCIQYLPPEKPCDSPASSHGSALDSPATPSAALASPAAPAATHSEQAQPLSLTTKPEARAQLALHSAAFLSAKAAASNSSQMGSQPPLLSRPLPLGSMPAALLTSPPTFPATLHAHQALPVLQAQPLSLVTKSAH
As to B1, the binding result in assay [1] is listed as “binds”; in assay [2], “no binding (condition: differentiation (-LIF day 4))”; in assay [4] it was “binds”; in assay [5] it was “binds”.

B2: p73 (protein, UniProt Q9JJP2 1-631)
chain: MAQTSSSSSSTFEHLWSSLEPDSTYFDLPQPSQGTSEASGSEESNMDVFHLQGMAQFNLLSSAMDQMGSRAAPASPYTPEHAASAPTHSPYAQPSSTFDTMSPAPVIPSNTDYPGPHHFEVTFQQSSTAKSATWTYSPLLKKLYCQIAKTCPIQIKVSTPPPPGTAIRAMPVYKKAEHVTDIVKRCPNHELGRDFNEGQSAPASHLIRVEGNNLAQYVDDPVTGRQSVVVPYEPPQVGTEFTTILYNFMCNSSCVGGMNRRPILVIITLETRDGQVLGRRSFEGRICACPGRDRKADEDHYREQQALNESTTKNGAASKRAFKQSPPAIPALGTNVKKRRHGDEDMFYMHVRGRENFEILMKVKESLELMELVPQPLVDSYRQQQQQQLLQRPSHLQPPSYGPVLSPMNKVHGGVNKLPSVNQLVGQPPPHSSAAGPNLGPMGSGMLNSHGHSMPANGEMNGGHSSQTMVSGSHCTPPPPYHADPSLVSFLTGLGCPNCIECFTSQGLQSIYHLQNLTIEDLGALKVPDQYRMTIWRGLQDLKQSHDCGQQLLRSSSNAATISIGGSGELQRQRVMEAVHFRVRHTITIPNRGGAGAVTGPDEWADFGFDLPDCKSRKQPIKEEFTETESH
Take B2: the binding entry is “binds” in assay [6], “no binding (condition: cells not expressing RASSF1A)” in [7], “binds” with FLAG–YAP (human) and “binds” in assay [5].
